Results: article PMC8982406
These are yes or no findings as the source states them, for the method shown. In cells and extracts the contact can be indirect. For some of these results: A result given as binding can be weak or reduced; the word gives no strength. For some of these results: Where a sequence is shown, tags or fusion partners need not be part of it. One block for each molecule: values may come before it.

Amino acid sequences for entries named in this document (tags omitted). A change or cut given only in a name is not applied to a line headed by its entry.
UniProt Q9NVW2: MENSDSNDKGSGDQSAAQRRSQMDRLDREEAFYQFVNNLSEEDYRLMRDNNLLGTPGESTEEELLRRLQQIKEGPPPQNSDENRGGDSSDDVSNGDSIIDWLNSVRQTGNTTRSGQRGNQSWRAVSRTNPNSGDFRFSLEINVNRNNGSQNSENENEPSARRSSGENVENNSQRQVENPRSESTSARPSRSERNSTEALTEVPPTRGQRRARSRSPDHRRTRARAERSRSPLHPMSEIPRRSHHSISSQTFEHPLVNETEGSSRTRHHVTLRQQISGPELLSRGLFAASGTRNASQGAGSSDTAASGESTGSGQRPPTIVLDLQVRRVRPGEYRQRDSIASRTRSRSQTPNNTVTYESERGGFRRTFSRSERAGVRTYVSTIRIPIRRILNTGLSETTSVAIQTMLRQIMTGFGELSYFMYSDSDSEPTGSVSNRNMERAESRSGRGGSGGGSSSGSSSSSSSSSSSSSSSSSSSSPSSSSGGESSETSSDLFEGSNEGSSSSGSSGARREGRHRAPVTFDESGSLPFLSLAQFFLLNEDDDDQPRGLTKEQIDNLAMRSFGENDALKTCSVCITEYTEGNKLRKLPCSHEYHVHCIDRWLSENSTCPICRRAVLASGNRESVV
UniProt Q9WTV7: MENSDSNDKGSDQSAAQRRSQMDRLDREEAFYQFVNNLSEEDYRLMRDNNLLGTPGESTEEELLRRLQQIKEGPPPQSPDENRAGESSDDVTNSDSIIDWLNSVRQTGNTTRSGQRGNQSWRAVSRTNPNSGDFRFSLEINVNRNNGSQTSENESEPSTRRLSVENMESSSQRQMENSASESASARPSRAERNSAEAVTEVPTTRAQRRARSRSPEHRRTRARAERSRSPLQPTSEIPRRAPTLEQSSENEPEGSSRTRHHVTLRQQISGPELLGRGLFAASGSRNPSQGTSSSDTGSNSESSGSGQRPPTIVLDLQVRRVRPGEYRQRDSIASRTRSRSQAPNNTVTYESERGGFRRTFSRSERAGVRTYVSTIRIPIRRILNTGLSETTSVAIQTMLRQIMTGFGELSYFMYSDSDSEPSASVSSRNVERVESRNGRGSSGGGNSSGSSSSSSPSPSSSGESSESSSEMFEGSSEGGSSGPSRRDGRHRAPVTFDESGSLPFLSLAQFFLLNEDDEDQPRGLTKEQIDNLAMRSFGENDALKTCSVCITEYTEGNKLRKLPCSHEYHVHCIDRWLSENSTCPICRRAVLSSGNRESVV

How the values were obtained:
Experiment in all cases: co-IP; HEK293 cells transiently transfected with FLAG- or myc-tagged RLIM and ZC4H2 vectors; lysis in 50 mM Tris-HCl pH 7.4, 150 mM NaCl, 5 mM EDTA, 1% Triton X-100; anti-FLAG M2 beads, 4°C, 4 h; western blotting
FLAG-tagged ZC4H2 = target: T1, FLAG-tagged ZC4H2 (UniProt Q9NQZ6)
T1 sequence: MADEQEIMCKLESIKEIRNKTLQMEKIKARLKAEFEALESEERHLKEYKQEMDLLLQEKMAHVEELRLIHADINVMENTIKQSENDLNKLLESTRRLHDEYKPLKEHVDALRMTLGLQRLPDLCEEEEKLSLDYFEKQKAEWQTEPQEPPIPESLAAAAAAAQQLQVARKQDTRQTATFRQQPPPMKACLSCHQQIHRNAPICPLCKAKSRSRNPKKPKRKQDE

[1] = target: FLAG-tagged RLIM (not stated (human or mouse cDNA cloned))
[2] = target: RLIM ΔR with S214A (not stated (human or mouse cDNA cloned))
[3] = target: RLIM S214A (not stated (human or mouse cDNA cloned)) (UniProt Q9NVW2)
[4] = target: RLIM ΔNLS (not stated (human or mouse cDNA cloned)) (UniProt Q9NVW2)
[5] = target: RLIM ΔN (not stated (human or mouse cDNA cloned)) (UniProt Q9WTV7)
[6] = target: RLIM ΔR with ΔNLS (not stated (human or mouse cDNA cloned))

binding (FLAG-tagged ZC4H2): binds
Molecule: myc-tagged RLIM

binding [1]: binds
B1: myc-tagged ZC4H2 (protein, UniProt Q9NQZ6 1-224)
chain: T1 sequence

binding [2]: no binding
binding [3]: no binding
binding [4]: no binding
binding [5]: binds
binding [6]: no binding
B2: ZC4H2 (wild type; mapping and mutation co-IPs) (protein, UniProt Q9NQZ6 1-224)
chain: T1 sequence
